PubChem BioAssay AID1053208, Peter MacCallum Cancer Centre | 2014
This is an unselected part of about 17,000 reagents tested. 788 of them (4.7%) count as active. 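Calls rest on z-score classes alone; an extra cut-off of viability at most 70% of control was not applied to them.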 A number with no mark means an inactive call. Further read-outs or replicates are left out here.

Test: 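Find knock-downs that sensitise mouse osteosarcoma cells to doxorubicin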 (primary screen)
Cells: mouse osteosarcoma cells, early-passage culture from an engineered mouse model of fibroblastic bone tumour
Reagents: siRNA pool against mouse genes, 40 nM
Duration: about 120 h (48 h before drug, then 72 h with drug)
Conditions: doxorubicin 100 nM for 72 h, roughly 30-40% inhibitory dose
Measured: 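Luminescent ATP signal taken as viability with or without 100 nM doxorubicin for 72 h; mean of two wells set against non-targeting siRNA and turned into robust z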
Reading the numbers: viability z-score with doxorubicin: higher = more viable cells under doxorubicin; viability z-score without drug: higher = more viable cells with knock-down alone
Hit rule: 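a pool counts as active when its viability z-score with doxorubicin is -2 or below and its z-score without drug lies between -2 and 2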

no.	gene symbol	combined z-score class	viability z-score with doxorubicin	viability z-score without drug
1	Hsd17b14 (GeneID 66065)	no change with or without drug	-1.24	-0.51
2	Sepsecs (GeneID 211006)	no change with or without drug	-1.57	1.52
3	Elavl2 (GeneID 15569)	no change with or without drug	1.24	1.52
4	Hck (GeneID 15162)	no change with or without drug	1.35	0.17
5	Grb10 (GeneID 14783)	no change with or without drug	0.67	-0.51
6	Cd160 (GeneID 54215)	high cell count without drug only	1.8	2.87
7	Taldo1 (GeneID 21351)	no change with or without drug	-0.9	-0.17
8	Duoxa2 (GeneID 66811)	no change with or without drug	0.22	0.17
9	Or8k22 (GeneID 259021)	no change with or without drug	0.67	-0.17
10	Chrac1 (GeneID 93696)	no change with or without drug	0	0.17
11	Mgat3 (GeneID 17309)	no change with or without drug	-0.79	-1.18
12	Chrm1 (GeneID 12669)	no change with or without drug	-0.56	-1.01
13	Galc (GeneID 14420)	no change with or without drug	1.12	1.18
14	BC106179 (GeneID 320099)	no change with or without drug	-1.24	-0.51
15	Ubap1 (GeneID 67123)	no change with or without drug	-0.79	-1.18
16	Tmem51 (GeneID 214359)	no change with or without drug	-1.12	0
17	Fmo9 (GeneID 240894)	no change with or without drug	-0.9	-0.67
18	Upp2 (GeneID 76654)	no change with or without drug	-0.9	-0.84
19	Slc15a5 (GeneID 277898)	no change with or without drug	-0.9	-0.51
20	Poglut1 (GeneID 224143)	no change with or without drug	-0.67	-1.18
21	Cyp8b1 (GeneID 13124)	no change with or without drug	-0.45	-0.17
22	Proser2 (GeneID 227545)	no change with or without drug	0.67	1.69
23	Artn (GeneID 11876)	no change with or without drug	1.24	0.84
24	Efnb1 (GeneID 13641)	no change with or without drug	-1.12	-0.34
25	Fbn1 (GeneID 14118)	low cell count with doxorubicin only (active)	-2.92	-0.51
26	Mlh1 (GeneID 17350)	no change with or without drug	-0.67	0.34
27	Bhlha15 (GeneID 17341)	no change with or without drug	1.35	-0.17
28	Or2ag18 (GeneID 258593)	no change with or without drug	0	-0.17
29	Scnn1a (GeneID 20276)	no change with or without drug	-0.45	-0.34
30	Cd86 (GeneID 12524)	no change with or without drug	0.56	-0.17
31	Kir3dl1 (GeneID 245616)	no change with or without drug	-0.67	-0.51
32	Grik1 (GeneID 14805)	no change with or without drug	0	-0.84
33	Cttnbp2nl (GeneID 80281)	no change with or without drug	0.9	0.84
34	Mgll (GeneID 23945)	no change with or without drug	0.79	0.34
35	Dntt (GeneID 21673)	high cell count without drug only	1.46	2.36
36	Clgn (GeneID 12745)	no change with or without drug	0.67	-0.34
37	Rtl5 (GeneID 331474)	no change with or without drug	-0.22	1.18
38	Smpd3 (GeneID 58994)	no change with or without drug	-0.22	-1.35
39	Glcci1 (GeneID 170772)	no change with or without drug	0.79	1.18
40	Anxa1 (GeneID 16952)	no change with or without drug	-1.57	-1.52
41	Atg4c (GeneID 242557)	no change with or without drug	0.45	-0.17
42	Gli1 (GeneID 14632)	no change with or without drug	-1.46	-1.52
43	Pex13 (GeneID 72129)	no change with or without drug	1.24	0.17
44	Tktl1 (GeneID 83553)	no change with or without drug	-0.22	0.84
45	Or1j12 (GeneID 258953)	no change with or without drug	-0.11	-1.85
46	Trp53rkb (GeneID 76367)	no change with or without drug	-1.35	-1.35
47	Adamts20 (GeneID 223838)	no change with or without drug	0.22	0.84
48	Trim23 (GeneID 81003)	no change with or without drug	-0.9	-0.17
49	Mcl1 (GeneID 17210)	no change with or without drug	-0.45	-0.17
50	Prickle3 (GeneID 54630)	low cell count with doxorubicin only (active)	-2.36	-1.52

Laid out differently: results already given
{"gene symbol":"Cyp8b1 (GeneID 13124)","combined z-score class":"no change with or without drug","viability z-score with doxorubicin":-0.45,"viability z-score without drug":-0.17}
{"gene symbol":"Proser2 (GeneID 227545)","combined z-score class":"no change with or without drug","viability z-score with doxorubicin":0.67,"viability z-score without drug":1.69}
{"gene symbol":"Artn (GeneID 11876)","combined z-score class":"no change with or without drug","viability z-score with doxorubicin":1.24,"viability z-score without drug":0.84}
{"gene symbol":"Efnb1 (GeneID 13641)","combined z-score class":"no change with or without drug","viability z-score with doxorubicin":-1.12,"viability z-score without drug":-0.34}
